Data reported in the supplement of paper PMC10849652.
Some of the results follow.

Amino acid sequences for entries named in this document (tags omitted). A change or cut given only in a name is not applied to a line headed by its entry.
UniProt Q14562: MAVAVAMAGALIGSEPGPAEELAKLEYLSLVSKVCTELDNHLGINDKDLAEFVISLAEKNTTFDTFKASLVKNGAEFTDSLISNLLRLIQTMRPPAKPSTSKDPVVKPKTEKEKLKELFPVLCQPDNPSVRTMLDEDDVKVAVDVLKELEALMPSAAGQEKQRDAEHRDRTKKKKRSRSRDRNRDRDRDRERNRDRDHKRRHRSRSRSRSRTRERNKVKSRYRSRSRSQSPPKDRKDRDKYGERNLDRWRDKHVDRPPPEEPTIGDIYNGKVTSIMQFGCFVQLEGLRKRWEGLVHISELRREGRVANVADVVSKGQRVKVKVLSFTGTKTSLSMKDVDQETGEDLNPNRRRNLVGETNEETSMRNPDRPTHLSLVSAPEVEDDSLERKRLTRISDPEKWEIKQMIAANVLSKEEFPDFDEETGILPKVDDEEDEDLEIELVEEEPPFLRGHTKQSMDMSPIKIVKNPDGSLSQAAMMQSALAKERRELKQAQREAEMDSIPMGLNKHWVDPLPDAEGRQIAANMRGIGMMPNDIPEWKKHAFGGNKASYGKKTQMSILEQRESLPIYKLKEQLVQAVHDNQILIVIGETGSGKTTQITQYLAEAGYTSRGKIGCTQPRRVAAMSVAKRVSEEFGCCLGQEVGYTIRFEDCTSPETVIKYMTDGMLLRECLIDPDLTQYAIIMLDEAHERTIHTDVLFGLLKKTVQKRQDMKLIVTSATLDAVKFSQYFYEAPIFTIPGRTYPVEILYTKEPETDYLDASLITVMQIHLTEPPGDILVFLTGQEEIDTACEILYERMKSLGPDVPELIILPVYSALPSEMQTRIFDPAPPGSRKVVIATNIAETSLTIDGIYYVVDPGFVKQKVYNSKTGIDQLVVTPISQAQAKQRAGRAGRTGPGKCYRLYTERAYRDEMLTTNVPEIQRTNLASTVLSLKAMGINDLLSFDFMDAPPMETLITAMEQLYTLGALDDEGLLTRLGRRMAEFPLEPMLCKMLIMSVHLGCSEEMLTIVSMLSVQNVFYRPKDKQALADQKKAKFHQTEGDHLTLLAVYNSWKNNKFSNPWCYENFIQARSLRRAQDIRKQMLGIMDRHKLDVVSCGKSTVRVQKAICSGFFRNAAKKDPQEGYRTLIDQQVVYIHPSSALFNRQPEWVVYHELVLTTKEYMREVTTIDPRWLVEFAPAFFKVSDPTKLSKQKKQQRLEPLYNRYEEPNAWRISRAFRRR
UniProt Q8IWF6: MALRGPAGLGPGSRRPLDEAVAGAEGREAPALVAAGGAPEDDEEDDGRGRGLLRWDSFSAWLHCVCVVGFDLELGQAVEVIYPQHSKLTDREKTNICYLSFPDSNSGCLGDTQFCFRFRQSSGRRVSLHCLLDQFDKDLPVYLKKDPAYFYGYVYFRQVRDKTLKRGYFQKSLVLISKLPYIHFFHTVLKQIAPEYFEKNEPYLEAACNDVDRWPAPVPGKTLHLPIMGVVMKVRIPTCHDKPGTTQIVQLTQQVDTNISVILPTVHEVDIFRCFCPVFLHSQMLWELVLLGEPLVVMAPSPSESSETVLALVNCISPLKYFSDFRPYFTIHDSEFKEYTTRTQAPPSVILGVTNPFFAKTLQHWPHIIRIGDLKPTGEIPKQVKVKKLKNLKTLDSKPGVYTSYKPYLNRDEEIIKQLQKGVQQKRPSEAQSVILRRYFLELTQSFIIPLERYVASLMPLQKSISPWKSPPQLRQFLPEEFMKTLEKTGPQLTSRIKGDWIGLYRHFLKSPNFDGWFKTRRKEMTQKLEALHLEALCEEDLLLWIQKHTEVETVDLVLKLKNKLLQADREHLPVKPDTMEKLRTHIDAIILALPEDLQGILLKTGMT
UniProt Q9NR30: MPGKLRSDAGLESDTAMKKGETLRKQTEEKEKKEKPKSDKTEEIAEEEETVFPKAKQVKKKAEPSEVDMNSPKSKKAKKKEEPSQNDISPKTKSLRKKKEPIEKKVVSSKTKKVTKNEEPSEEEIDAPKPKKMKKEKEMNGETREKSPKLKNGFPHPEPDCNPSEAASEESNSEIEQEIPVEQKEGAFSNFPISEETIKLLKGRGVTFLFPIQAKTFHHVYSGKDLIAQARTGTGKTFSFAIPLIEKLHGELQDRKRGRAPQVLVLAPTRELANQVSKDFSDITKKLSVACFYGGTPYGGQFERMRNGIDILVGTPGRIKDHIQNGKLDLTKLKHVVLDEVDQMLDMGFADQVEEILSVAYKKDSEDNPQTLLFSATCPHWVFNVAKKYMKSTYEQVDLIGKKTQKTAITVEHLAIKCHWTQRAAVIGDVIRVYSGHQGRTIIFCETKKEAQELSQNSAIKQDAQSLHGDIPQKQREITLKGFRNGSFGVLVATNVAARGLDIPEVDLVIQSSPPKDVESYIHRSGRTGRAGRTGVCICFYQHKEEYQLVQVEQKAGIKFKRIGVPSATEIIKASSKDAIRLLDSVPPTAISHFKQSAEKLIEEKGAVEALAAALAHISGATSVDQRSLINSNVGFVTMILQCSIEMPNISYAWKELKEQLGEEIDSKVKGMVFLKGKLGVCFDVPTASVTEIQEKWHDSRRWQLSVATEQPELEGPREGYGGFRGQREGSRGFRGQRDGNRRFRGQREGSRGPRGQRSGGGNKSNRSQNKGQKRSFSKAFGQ
UniProt Q9BUQ8: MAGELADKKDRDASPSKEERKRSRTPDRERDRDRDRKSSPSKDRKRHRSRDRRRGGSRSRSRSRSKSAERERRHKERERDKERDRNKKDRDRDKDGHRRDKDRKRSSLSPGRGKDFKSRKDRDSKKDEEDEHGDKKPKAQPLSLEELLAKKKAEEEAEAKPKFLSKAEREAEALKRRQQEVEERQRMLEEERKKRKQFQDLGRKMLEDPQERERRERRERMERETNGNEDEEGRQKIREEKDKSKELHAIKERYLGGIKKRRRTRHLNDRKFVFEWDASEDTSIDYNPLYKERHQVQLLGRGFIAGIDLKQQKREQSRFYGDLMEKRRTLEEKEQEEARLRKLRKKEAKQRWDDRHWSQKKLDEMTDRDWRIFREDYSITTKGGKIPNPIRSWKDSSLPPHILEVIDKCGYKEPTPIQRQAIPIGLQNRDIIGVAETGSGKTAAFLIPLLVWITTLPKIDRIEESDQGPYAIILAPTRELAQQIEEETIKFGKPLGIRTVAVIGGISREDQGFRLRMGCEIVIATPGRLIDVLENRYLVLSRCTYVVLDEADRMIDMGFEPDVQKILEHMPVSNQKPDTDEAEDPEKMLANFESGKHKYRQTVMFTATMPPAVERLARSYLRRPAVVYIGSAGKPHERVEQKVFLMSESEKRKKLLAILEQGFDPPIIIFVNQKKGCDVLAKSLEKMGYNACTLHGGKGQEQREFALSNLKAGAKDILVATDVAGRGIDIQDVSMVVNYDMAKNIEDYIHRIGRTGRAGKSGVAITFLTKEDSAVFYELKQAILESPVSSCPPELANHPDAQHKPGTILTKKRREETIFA
UniProt Q9NY93: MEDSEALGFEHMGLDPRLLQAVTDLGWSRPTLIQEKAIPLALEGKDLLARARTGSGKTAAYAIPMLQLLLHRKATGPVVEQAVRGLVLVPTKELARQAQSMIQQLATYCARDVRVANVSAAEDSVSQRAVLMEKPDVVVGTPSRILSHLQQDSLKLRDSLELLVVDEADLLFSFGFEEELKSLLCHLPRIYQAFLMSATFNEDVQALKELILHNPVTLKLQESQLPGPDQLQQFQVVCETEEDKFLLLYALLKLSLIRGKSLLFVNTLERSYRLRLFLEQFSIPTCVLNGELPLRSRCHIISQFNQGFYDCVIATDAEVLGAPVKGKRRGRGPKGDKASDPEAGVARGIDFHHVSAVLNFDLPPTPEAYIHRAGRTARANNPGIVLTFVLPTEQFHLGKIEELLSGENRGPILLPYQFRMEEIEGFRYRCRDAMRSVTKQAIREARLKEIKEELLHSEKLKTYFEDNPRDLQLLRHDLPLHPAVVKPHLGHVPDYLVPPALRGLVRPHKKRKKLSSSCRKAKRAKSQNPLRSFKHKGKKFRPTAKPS
UniProt Q6P3S1: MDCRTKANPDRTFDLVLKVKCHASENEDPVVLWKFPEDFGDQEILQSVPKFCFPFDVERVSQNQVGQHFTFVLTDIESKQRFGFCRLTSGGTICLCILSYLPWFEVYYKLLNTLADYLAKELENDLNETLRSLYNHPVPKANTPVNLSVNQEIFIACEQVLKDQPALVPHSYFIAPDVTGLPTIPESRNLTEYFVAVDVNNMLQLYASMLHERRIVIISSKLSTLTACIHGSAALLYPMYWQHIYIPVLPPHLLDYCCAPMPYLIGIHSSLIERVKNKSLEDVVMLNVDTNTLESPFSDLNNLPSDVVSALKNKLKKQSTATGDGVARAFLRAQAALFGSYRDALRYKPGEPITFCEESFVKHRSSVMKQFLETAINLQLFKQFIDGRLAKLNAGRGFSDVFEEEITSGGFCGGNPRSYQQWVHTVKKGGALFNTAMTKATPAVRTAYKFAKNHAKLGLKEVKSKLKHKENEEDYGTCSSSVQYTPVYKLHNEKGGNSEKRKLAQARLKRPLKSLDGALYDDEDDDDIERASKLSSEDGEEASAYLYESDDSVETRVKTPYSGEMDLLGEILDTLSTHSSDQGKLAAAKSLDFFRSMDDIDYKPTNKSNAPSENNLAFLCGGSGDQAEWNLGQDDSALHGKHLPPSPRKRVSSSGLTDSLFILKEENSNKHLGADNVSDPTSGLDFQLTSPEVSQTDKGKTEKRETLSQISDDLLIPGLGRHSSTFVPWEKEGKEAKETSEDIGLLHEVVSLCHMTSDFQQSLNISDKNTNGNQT
UniProt Q9BUN8: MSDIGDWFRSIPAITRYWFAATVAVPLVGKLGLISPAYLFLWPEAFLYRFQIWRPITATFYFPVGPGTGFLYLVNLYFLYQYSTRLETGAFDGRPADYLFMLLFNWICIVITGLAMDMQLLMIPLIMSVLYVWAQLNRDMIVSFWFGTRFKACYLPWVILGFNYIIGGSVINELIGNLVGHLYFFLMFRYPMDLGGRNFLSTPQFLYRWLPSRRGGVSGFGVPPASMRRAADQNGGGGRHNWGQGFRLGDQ
UniProt Q9UJV9: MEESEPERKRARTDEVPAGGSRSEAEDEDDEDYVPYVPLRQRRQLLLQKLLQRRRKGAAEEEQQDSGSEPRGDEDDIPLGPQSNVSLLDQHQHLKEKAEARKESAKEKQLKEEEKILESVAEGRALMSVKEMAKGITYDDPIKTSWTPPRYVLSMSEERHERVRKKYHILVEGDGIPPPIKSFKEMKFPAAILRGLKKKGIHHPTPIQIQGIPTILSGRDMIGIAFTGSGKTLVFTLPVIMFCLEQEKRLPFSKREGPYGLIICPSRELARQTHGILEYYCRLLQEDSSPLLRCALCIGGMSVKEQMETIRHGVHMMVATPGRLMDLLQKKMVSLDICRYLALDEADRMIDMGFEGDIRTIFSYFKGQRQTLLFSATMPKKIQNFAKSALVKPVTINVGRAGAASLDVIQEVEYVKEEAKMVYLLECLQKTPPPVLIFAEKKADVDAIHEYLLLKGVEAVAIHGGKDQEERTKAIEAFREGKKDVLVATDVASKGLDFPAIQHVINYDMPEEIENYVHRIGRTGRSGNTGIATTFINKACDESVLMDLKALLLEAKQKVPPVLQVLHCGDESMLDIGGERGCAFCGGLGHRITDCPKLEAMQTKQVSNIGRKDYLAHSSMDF
UniProt O95865: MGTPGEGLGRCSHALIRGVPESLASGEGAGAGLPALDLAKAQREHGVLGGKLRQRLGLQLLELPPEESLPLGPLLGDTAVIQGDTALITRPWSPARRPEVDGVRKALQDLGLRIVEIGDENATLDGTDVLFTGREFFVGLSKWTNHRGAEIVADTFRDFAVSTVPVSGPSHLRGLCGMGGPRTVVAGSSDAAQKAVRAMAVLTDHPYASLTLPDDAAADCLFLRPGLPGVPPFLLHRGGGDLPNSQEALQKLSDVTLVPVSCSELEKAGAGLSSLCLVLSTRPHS
UniProt Q02127: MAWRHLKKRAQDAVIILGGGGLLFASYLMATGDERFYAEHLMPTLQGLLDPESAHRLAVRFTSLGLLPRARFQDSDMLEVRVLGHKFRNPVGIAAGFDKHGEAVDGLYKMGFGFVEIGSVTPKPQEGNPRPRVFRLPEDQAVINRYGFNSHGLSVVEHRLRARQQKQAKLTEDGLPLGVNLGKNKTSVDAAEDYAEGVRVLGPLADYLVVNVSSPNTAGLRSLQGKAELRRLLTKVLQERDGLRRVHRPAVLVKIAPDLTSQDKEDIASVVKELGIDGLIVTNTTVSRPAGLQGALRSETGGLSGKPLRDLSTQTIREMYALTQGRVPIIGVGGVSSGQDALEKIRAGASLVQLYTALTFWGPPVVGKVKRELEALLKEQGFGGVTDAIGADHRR
UniProt Q6UWP2: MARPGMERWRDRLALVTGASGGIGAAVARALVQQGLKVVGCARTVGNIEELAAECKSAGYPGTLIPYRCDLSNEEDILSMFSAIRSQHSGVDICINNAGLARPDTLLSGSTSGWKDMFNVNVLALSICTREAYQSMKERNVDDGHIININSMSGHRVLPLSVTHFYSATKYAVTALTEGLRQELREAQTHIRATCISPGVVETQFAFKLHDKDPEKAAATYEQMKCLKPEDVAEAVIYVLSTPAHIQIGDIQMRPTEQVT

What follows are targets tested with c1cn2cc(-c3ccc4cn[nH]c4c3)nc(Nc3ccc(N4CCOCC4)cc3)c2n1 [entospletinib] (assay: log2 fold change, soluble protein after heating vs DMSO (PISA); higher = thermal stabilisation; K562 cells, 10 uM, 30 min; active = over 0.2 and 3.5 SD of the protein, either way, in both replicates (recomputed)).
How it was run: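 K562 cells at 2×10^6 cells/mL were treated with 10 μM compound for 30 min. Aliquots were heated for 3 min across 48°C-58°C, pooled, and extracted in PBS with 0.5% NP-40 at 4°C; soluble protein was the supernatant after 21,000xg for 90 min. Soluble protein was quantified by TMTpro 16plex LC-MS/MS with channel sums equalised, and reported as log2 fold change in thermal stability against DMSO controls, with values from duplicates.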

log2 fold change, inactive:
DCXR (UniProt Q7Z4W1) -0.012
DHX8 (UniProt Q14562) 0.022
DENND6A (UniProt Q8IWF6) 0.002
DDX21 (UniProt Q9NR30) 0.033
DENND4C isoform 7 (UniProt Q5VZ89) -0.198
DGCR2 (UniProt P98153) 0.021
DHRS7 (UniProt Q9Y394) 0.031
DHX15 (UniProt O43143) -0.039
DDX23 (UniProt Q9BUQ8) 0.235
DDX56 (UniProt Q9NY93) 0.116
DNAJA1 (UniProt P31689) -0.031
DENND1B (UniProt Q6P3S1) 0.138
DMAC2L (UniProt Q99766) -0.021
DESI1 (UniProt Q6ICB0) 0.032
DERL1 (UniProt Q9BUN8) 0.042
DDX41 (UniProt Q9UJV9) -0.055
DDX19B (UniProt Q9UMR2) -0.046
DDAH2 (UniProt O95865) -0.016
DHODH (UniProt Q02127) 0.01
DENND4A isoform 2 (UniProt Q7Z401) 0.088
DHX57 (UniProt Q6P158) 0.045
DNA2 (UniProt P51530) -0.08
DHRS11 (UniProt Q6UWP2) -0.016

Retrieved one by one from above:
log2 fold change, inactive:
DHX15 (UniProt O43143) -0.039
DDX23 (UniProt Q9BUQ8) 0.235
